Results are given in words; binding and its absence hold for the method and conditions named. In cells and extracts the contact can be indirect. Some entries that bind do so weakly or less than the wild type.
Target: Bax (bovine (endogenous in primary bovine granulosa cells)) (UniProt O02703)
Experiment: co-IP; Pierce Co-Immunoprecipitation Kit; endogenous proteins of primary bovine granulosa cells cultured in T75 bottles; cells treated with NEFA, or with NEFA and NAC

Protein sequences, listed by entry. Tags and fused reporters are not part of them.
UniProt O02703: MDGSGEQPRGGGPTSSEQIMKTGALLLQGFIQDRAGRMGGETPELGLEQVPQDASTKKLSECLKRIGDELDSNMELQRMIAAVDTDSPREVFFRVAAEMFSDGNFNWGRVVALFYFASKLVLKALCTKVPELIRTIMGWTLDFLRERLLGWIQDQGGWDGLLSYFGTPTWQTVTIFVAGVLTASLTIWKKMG
UniProt P67939: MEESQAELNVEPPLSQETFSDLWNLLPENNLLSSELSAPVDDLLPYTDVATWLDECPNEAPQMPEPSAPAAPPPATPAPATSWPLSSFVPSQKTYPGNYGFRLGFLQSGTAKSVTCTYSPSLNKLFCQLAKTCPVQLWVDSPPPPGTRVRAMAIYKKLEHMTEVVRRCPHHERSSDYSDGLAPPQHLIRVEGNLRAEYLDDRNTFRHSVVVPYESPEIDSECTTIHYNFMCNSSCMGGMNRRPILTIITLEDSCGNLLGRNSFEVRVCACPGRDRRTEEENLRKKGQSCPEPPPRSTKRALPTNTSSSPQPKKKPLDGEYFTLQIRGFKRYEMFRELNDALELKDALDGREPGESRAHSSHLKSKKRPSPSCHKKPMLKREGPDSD

p53 (from UniProt P67939 1-386)
binding: binds
